Among the data in paper PMC4747173 are binding values, retold here.

The chains behind the UniProt entries cited, without tags or fusion partners.
UniProt O14777: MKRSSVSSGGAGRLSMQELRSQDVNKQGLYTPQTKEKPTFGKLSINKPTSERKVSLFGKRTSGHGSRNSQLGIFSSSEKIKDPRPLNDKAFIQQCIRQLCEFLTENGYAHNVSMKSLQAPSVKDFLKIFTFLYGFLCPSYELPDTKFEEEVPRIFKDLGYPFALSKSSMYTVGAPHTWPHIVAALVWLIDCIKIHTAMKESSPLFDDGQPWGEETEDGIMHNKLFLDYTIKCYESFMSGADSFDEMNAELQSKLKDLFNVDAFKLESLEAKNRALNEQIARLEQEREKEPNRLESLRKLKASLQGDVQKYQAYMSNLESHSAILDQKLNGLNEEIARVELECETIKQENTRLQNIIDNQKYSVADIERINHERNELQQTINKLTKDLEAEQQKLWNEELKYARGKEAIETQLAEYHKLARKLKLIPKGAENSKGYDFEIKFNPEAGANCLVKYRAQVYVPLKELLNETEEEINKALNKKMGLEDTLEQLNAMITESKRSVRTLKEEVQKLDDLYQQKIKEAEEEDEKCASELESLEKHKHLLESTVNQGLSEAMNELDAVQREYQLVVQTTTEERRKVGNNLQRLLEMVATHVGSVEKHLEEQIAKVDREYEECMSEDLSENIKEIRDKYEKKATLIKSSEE
UniProt P62140: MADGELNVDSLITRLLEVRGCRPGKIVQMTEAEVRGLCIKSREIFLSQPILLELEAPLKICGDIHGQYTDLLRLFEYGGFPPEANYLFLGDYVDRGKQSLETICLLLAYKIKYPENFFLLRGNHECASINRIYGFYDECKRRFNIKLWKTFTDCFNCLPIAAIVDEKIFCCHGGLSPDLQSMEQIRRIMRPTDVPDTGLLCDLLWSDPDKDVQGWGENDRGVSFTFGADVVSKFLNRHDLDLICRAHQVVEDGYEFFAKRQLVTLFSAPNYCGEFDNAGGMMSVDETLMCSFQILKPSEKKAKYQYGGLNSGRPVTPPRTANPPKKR
UniProt P36873: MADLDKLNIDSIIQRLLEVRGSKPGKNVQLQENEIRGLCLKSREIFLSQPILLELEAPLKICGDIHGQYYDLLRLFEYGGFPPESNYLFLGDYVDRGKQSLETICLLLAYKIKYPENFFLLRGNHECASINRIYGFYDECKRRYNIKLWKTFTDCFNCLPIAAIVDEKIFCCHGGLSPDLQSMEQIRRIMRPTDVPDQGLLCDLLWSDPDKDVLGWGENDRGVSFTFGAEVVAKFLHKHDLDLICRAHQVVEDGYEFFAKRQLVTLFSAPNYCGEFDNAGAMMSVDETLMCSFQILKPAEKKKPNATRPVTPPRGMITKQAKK
UniProt Q9BV73: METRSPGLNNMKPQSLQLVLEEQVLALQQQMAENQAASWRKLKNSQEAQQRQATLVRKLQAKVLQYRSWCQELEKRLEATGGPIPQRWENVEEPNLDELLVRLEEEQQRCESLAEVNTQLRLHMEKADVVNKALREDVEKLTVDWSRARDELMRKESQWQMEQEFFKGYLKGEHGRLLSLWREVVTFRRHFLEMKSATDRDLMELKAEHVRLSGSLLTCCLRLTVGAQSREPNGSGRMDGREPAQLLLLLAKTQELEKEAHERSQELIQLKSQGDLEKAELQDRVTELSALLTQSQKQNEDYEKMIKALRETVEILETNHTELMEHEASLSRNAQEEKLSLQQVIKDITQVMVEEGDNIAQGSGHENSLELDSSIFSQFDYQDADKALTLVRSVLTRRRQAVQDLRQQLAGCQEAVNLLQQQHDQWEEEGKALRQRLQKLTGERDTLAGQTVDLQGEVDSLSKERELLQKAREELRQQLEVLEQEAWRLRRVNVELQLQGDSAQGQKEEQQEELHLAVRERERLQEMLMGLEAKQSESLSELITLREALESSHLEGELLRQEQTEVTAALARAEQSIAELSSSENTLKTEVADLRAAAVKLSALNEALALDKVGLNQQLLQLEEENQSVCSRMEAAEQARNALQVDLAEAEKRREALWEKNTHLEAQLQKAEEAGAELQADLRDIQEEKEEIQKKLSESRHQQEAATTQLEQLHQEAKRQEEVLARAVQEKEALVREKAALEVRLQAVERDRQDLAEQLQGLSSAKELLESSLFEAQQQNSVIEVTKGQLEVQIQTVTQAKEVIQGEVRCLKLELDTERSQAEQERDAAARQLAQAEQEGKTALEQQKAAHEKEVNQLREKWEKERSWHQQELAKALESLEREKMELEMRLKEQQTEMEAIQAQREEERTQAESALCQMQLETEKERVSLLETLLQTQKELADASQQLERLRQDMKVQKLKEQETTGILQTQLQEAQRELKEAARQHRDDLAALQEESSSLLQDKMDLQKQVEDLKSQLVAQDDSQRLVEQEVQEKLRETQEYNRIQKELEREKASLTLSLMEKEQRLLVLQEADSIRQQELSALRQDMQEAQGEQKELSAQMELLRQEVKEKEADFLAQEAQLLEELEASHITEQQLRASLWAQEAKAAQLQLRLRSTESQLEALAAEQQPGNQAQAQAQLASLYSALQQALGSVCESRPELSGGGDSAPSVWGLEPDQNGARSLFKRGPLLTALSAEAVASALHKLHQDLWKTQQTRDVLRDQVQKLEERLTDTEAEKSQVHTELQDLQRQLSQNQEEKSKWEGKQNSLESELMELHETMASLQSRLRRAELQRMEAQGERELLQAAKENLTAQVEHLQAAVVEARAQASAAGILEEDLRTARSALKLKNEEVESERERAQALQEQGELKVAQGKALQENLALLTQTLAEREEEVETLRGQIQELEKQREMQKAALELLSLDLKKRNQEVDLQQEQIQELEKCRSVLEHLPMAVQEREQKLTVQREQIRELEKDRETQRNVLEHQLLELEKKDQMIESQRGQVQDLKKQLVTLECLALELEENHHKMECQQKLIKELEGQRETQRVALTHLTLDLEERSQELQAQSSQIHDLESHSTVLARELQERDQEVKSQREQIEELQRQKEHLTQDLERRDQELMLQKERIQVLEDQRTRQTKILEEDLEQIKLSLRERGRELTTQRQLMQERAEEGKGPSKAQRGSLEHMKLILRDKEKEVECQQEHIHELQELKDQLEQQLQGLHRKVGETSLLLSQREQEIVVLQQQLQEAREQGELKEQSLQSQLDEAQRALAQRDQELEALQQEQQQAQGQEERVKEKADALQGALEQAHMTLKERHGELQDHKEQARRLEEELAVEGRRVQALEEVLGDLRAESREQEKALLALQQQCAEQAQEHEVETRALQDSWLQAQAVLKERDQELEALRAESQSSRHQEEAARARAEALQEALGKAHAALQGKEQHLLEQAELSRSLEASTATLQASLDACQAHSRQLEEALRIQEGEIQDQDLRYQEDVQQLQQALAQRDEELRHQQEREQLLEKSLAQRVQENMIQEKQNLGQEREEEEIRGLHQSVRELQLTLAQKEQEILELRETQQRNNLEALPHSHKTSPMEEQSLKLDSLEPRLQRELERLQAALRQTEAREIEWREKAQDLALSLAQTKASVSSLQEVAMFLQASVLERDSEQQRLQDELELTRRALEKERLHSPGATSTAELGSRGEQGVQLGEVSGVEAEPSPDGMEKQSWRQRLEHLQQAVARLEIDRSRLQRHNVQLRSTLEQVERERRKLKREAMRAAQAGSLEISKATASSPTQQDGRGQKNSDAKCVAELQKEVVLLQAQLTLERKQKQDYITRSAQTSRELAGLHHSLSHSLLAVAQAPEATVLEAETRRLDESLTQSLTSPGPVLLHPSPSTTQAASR
UniProt P62136: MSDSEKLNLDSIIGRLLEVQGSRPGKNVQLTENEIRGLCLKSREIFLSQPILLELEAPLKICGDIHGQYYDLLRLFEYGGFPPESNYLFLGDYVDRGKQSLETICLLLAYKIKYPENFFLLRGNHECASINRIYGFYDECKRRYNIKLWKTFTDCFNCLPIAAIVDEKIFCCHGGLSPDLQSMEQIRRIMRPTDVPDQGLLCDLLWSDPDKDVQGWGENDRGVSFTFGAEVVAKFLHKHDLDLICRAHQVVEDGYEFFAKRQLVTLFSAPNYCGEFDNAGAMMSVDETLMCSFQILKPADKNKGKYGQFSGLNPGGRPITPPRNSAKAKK
UniProt Q15154: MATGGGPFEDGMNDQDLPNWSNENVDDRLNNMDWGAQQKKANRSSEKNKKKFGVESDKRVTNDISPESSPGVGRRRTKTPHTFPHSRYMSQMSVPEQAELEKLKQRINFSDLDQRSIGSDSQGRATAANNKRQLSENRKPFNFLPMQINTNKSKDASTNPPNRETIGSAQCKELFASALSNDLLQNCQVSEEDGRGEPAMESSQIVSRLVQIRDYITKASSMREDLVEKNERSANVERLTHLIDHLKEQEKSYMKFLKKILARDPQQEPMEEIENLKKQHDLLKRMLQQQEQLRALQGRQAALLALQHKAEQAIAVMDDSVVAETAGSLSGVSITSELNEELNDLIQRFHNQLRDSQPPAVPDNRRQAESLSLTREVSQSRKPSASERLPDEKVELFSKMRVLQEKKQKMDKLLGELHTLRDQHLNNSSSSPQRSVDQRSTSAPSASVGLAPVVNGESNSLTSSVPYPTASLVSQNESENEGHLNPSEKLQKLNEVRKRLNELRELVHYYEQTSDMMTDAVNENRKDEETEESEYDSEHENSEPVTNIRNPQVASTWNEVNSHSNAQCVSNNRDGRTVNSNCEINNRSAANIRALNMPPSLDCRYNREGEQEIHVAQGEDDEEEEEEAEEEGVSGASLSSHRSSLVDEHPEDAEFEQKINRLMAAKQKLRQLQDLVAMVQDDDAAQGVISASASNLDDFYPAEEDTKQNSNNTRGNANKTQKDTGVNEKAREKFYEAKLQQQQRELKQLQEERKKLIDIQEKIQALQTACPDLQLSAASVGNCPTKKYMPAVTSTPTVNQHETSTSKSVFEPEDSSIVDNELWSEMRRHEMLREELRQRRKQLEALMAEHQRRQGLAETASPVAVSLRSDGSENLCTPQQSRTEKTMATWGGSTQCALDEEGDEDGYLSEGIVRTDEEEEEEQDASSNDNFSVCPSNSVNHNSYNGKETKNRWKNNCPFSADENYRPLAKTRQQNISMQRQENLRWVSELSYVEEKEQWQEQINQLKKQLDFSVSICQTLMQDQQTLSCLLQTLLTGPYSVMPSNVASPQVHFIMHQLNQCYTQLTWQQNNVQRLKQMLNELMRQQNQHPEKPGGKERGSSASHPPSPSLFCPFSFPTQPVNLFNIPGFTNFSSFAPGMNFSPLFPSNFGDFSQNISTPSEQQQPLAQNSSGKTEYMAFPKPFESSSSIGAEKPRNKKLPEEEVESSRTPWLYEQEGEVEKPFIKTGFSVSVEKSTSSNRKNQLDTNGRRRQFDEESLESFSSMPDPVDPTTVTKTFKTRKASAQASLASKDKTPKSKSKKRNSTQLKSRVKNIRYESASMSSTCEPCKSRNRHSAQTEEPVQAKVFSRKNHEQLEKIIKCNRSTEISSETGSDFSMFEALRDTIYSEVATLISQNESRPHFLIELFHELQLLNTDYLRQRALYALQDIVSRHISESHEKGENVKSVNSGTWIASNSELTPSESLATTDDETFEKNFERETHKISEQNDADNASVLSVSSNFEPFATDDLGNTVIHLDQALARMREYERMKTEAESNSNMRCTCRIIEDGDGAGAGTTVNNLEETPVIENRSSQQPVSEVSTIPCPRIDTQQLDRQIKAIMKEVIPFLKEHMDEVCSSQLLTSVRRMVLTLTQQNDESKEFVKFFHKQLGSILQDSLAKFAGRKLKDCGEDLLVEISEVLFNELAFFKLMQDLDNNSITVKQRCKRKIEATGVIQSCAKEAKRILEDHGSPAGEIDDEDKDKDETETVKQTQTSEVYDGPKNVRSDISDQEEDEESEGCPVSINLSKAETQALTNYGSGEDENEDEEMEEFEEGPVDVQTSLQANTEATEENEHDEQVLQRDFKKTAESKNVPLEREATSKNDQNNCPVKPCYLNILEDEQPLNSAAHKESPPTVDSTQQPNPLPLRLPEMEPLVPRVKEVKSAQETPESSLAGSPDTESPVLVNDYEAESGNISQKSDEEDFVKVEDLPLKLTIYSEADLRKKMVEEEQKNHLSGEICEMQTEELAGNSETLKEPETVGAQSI
UniProt P63151: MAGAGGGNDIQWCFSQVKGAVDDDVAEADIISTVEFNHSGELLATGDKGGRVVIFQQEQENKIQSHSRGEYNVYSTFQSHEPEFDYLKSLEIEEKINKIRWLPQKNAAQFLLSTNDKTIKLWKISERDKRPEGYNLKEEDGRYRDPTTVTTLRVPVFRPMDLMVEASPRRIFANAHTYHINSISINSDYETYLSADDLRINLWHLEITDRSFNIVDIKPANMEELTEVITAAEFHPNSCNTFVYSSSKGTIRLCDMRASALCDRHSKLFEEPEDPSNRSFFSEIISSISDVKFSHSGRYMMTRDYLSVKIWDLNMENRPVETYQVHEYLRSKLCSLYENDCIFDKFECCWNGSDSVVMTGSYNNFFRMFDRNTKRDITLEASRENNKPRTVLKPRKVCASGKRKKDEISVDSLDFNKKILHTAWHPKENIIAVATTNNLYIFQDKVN

Like-named read-outs stand apart in the source and are kept apart here. No constants are given. Whether binding was seen depends on the method and setting. In cells and extracts the contact can be indirect. A yes stands for co-enrichment or nearness to the bait. Other partners may have been found. For part of these data: No binding means not detected with the bait. For part of these data: Tags and fused reporters may be left off the sequences shown.

Experiment [1] addresses T1, FLAG-HA-ASPP2 (stably expressed in HeLa cells) (UniProt Q13625).
T1 sequence: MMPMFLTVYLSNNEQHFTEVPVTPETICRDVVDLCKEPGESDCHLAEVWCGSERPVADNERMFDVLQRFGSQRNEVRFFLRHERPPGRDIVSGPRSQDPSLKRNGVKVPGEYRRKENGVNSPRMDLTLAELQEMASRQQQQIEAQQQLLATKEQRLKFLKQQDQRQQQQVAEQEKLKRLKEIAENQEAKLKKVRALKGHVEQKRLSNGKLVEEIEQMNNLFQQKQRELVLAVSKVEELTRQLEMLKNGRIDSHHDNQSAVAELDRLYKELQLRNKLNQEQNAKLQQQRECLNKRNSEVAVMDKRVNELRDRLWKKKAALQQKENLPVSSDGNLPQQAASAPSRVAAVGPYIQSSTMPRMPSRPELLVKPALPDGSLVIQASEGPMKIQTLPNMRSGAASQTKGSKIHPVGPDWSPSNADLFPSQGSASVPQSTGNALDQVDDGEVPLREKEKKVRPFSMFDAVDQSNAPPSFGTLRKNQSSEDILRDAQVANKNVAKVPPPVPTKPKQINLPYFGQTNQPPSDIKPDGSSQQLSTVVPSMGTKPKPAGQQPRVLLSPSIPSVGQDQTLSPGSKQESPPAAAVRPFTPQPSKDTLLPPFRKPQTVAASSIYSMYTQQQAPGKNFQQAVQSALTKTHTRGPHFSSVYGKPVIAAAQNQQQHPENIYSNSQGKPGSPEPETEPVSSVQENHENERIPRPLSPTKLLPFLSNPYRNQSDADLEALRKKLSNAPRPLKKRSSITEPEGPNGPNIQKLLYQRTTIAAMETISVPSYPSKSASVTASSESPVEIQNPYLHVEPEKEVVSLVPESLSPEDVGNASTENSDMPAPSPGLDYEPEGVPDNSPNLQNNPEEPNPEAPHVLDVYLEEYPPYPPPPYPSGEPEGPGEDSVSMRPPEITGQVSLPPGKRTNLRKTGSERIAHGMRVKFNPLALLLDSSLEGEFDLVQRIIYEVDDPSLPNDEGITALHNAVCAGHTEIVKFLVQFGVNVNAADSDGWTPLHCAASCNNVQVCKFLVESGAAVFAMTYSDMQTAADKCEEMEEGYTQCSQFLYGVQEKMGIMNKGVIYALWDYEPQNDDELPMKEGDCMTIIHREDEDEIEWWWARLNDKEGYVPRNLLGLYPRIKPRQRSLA
Nature of the experiment: affinity purification with mass spectrometry; tandem affinity purification (anti-FLAG M2 agarose, FLAG peptide elution, then anti-HA agarose, HA peptide elution) from HeLa cells stably expressing FH-ASPP1 or FH-ASPP2; lysis in BC100 buffer (20 mM Tris-Cl pH 7.9, 100 mM NaCl, 0.2 mM EDTA, 20% glycerol) with 0.2% Triton X-100; proteins found in MOCK HeLa cells omitted.

Experiment [2] has as its target T2, FLAG-HA-ASPP1 (stably expressed in HeLa cells) (UniProt Q96KQ4).
T2 sequence: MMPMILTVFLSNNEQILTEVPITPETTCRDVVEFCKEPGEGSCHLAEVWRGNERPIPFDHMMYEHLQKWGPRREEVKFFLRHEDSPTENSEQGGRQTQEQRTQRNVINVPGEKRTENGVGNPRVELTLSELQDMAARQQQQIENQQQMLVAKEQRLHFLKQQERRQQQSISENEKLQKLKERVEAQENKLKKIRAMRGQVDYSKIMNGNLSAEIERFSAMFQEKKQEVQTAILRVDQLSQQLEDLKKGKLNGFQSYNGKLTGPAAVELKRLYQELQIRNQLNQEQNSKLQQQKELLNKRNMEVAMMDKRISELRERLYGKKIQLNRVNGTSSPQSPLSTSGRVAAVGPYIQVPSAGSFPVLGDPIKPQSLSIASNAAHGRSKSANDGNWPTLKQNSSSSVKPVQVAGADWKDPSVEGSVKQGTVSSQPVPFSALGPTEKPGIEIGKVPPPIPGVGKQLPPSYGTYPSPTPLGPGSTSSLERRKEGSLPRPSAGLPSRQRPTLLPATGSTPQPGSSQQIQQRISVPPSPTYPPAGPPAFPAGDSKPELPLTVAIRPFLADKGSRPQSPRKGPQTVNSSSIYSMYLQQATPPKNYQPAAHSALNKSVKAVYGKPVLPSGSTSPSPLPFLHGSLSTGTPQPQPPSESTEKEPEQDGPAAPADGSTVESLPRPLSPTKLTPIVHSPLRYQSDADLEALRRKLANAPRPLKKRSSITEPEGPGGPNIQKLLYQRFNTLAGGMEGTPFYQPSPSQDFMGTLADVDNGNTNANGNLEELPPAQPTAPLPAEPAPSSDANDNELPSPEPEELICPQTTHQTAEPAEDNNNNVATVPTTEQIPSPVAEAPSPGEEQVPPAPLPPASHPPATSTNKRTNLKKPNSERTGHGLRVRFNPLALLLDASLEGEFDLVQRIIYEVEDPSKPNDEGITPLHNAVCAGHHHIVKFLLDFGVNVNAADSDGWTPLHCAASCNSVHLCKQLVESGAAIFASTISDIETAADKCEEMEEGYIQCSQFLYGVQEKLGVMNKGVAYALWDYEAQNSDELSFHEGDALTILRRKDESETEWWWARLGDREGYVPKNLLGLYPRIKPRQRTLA
Described as above.

The target in experiment [3] is FLAG-HA-Hec1 (stably expressed in HeLa cells) (UniProt O14777). The experiment can be described thus: affinity purification with mass spectrometry; tandem affinity purification of the Hec1-containing complex from HeLa cells stably expressing FLAG-HA (FH)-Hec1; SDS-PAGE, mass spectrometry.
The target is the same in experiment [4]. Described as above. The source holds these as a separate data set.

On to “KNL-1 (endogenous) (from UniProt Q8NG31 1-2342)”, for which the binding result in experiment [1] and in experiment [2] was “binds” in each case. On to “INDAL (endogenous) (from UniProt Q8NI35 1-1801)”, for which the binding entry in experiment [1] is reported as “binds”. Same read-out and setting: the same measure for “MAGI2 (endogenous) (from UniProt Q86UL8 1-1455)”: “binds”. In the case of “Nuf2 (endogenous) (from UniProt Q9BZD4 1-464)”, the binding entry in experiment [1] and in experiment [2] was “binds” each time. As for “PP1β catalytic subunit (endogenous) (from UniProt P62140 1-327) (enzyme)”, the binding entry in experiment [3] was “no binding”; in experiment [1] it was “binds”; in experiment [2] it was “binds”. For “RASSF9 (endogenous) (from UniProt O75901 1-435)”, the binding result in experiment [1] and in experiment [2] was “binds” throughout. Take “TAZ (endogenous) (from UniProt Q9GZV5 1-400)”: the binding result in experiment [1] and in experiment [2] was “binds” in each case.

“PP1γ catalytic subunit (endogenous) (from UniProt P36873 1-323) (enzyme)”: the binding result is listed as “no binding” in experiment [3], “binds” in experiment [1] and “binds” in experiment [2]. On to “Hec1 (endogenous) (from UniProt O14777 1-642)”, for which the binding entry in experiment [1] and in experiment [2] was “binds” throughout. For “Par-3 (endogenous) (from UniProt Q8TEW0 1-1356)”, in experiment [1], the binding result is “binds”. Regarding “CENP-F (endogenous) (from UniProt P49454 1-3114)”, the binding result in experiment [1] and in experiment [2] was “binds” in each case. Consider “CAV1 (endogenous) (from UniProt Q03135 1-178)”, for which the binding entry in experiment [1] and in experiment [2] was “binds” each time.

With “C-Nap1 (endogenous) (from UniProt Q9BV73 1-2442)”, the binding entry in experiment [1] and in experiment [2] was “binds” throughout. Turning to “PP1α catalytic subunit (endogenous) (from UniProt P62136 1-330) (enzyme)”, the binding result in experiment [3] and in experiment [2] was “binds” throughout. “PCM1 (endogenous) (from UniProt Q15154 1-2024)”: the binding result in experiment [1] and in experiment [2] was “binds” in each case. With “PP2A regulatory subunit B55α (endogenous) (from UniProt P63151 1-447)”, in experiment [3], the binding entry is listed as “binds”. Take “Spc24 (endogenous) (from UniProt Q8NBT2 1-197)”: the binding entry in experiment [1] and in experiment [2] was “binds” each time.

B1: ASPP1 (endogenous) (protein, UniProt Q96KQ4 1-1090)
chain: T2 sequence
With B1, the binding result in experiment [4] is listed as “binds”.
